# Source: patent US10144732B2 (BIOGEN MA INC., priority 2014, dated 2018)
# Structures can show the parent of a compound that is named as a salt. Some results were stated once for a whole list of compounds, not compound by compound.
# System: 20:4 LPA (or 18:1 LPA) in rat K2 EDTA plasma
# Assay: LPA plasma IC50 assay by LC-MS/MS
# Assay type: biochemical
# Conditions: 37° C. for 18 hours, peak area ratio of 20:4 LPA (or 18:1 LPA) over 18:3 LPA
row,SMILES,IC50
1,"O=C(O)C12CCC(C(=O)N3CCc4c(C(F)(F)F)nn(Cc5ccc(F)cc5)c4C3)(CC1)C2 [Example 5-50, 4-(1-(4-Fluorobenzyl)-3-(trifluoromethyl)-4,5,6,7-tetrahydro-1H-pyrazolo[3,4-c]pyridine-6-carbonyl)bicyclo[2.2.1]heptane-1-carboxylic acid]",≤ 100 nM
2,"O=C(C[C@H]1CC[C@H](C(=O)O)CC1)N1CCc2c(C(F)(F)F)nn(Cc3ccc(Cl)s3)c2C1 [Example 5-17, trans-4-(2-(1-((5-chlorothiophen-2-yl)methyl)-3-(trifluoromethyl)-4,5-dihydro-1H-pyrazolo[3,4-c]pyridin-6(7H)-yl)-2-oxoethyl)cyclohexanecarboxylic acid]",≤ 100 nM
3,"CS(=O)(=O)NC(=O)[C@H]1CC[C@@H](CC(=O)N2CCc3c(C(F)(F)F)nn(Cc4ccc(F)cc4)c3C2)CC1 [Example 19-2, cis-4-(2-(1-(4-fluorobenzyl)-3-(trifluoromethyl)-4,5-dihydro-1H-pyrazolo[3,4-c]pyridin-6(7H)-yl)-2-oxoethyl)-N-(methylsulfonyl)cyclohexane carboxamide]",≤ 100 nM
4,"O=C(C[C@H]1CC[C@H](C(=O)O)CC1)N1CCc2c(C(F)(F)F)nn(Cc3cc(F)c(F)c(F)c3)c2C1 [Example 5-33, trans-4-(2-(1-(3,4,5-Trifluorobenzyl)-3-(trifluoromethyl)-4,5-dihydro-1H-pyrazolo[3,4-c]pyridin-6(7H)-yl)-2-oxoethyl)cyclohexanecarboxylic acid]",≤ 100 nM
5,"O=C(N[C@H]1CC[C@@H](C(=O)O)CC1)N1CCc2c(C(F)(F)F)nn(Cc3ccc(Cl)cc3F)c2C1 [Example 5-6, cis-4-(1-(4-chloro-2-fluorobenzyl)-3-(trifluoromethyl)-4,5,6,7-tetrahydro-1H-pyrazolo[3,4-c]pyridine-6-carboxamido)cyclohexanecarboxylic acid]",≤ 100 nM
6,"O=C(O)C1CCC(CC(=O)N2CCc3c(C(F)(F)F)nn(Cc4ccccc4F)c3C2)CC1 (mixture of isomers) [Example 6-3, 4-(2-(1-(2-Fluorobenzyl)-3-(trifluoromethyl)-4,5-dihydro-1H-pyrazolo[3,4-c]pyridin-6(7H)-yl)-2-oxoethyl)cyclohexanecarboxylic acid]",≤ 100 nM
7,"O=C(C[C@H]1CC[C@H](C(=O)O)CC1)N1CCc2c(C(F)(F)F)nn(Cc3ccc(F)cc3F)c2C1 [Example 5-30, trans-4-(2-(1-(2,4-Difluorobenzyl)-3-(trifluoromethyl)-4,5-dihydro-1H-pyrazolo[3,4-c]pyridin-6(7H)-yl)-2-oxoethyl)cyclohexanecarboxylic acid]",≤ 100 nM
8,"O=C(O)C1CN(CC(=O)N2CCc3c(C(F)(F)F)nn(Cc4ccc(Cl)cc4F)c3C2)C1 [Example 13-17, 1-(2-(1-(4-Chloro-2-fluorobenzyl)-3-(trifluoromethyl)-4,5-dihydro-1H-pyrazolo[3,4-c]pyridin-6(7H)-yl)-2-oxoethyl)azetidine-3-carboxylic acid TFA salt]",≤ 100 nM
9,"CS(=O)(=O)NC(=O)[C@H]1CC[C@H](CC(=O)N2CCc3c(C(F)(F)F)nn(Cc4ccc(F)cc4)c3C2)CC1 [Example 19-1, trans-4-(2-(1-(4-Fluorobenzyl)-3-(trifluoromethyl)-4,5-dihydro-1H-pyrazolo[3,4-c]pyridin-6(7H)-yl)-2-oxoethyl)-N-(methylsulfonyl)cyclohexanecarboxamide]",≤ 100 nM
10,"O=C(C[C@H]1CC[C@H](C(=O)O)CC1)N1CCc2c(C(F)(F)F)nn(Cc3ccc(Cl)cc3Cl)c2C1 [Example 7-7, trans-4-(2-(1-(2,4-Dichlorobenzyl)-3-(trifluoromethyl)-4,5-dihydro-1H-pyrazolo[3,4-c]pyridin-6(7H)-yl)-2-oxoethyl)cyclohexanecarboxylic acid]",≤ 100 nM
11,"O=C(O)C1CC2CCC(C1)N2CC(=O)N1CCc2c(C(F)(F)F)nn(Cc3ccc(F)cc3)c2C1 (stereo not shown) [Example 13-5, 8-(2-(1-(4-Fluorobenzyl)-3-(trifluoromethyl)-4,5-dihydro-1H-pyrazolo[3,4-c]pyridin-6(7H)-yl)-2-oxoethyl)-8-azabicyclo[3.2.1]octane-3-carboxylic acid]",≤ 100 nM
12,"O=C(O)C1CC2CCCC(C1)N2CC(=O)N1CCc2c(C(F)(F)F)nn(Cc3ccc(F)cc3)c2C1 (stereo not shown) [Example 13-6, 9-(2-(1-(4-Fluorobenzyl)-3-(trifluoromethyl)-4,5-dihydro-1H-pyrazolo[3,4-c]pyridin-6(7H)-yl)-2-oxoethyl)-9-azabicyclo[3.3.3.1]nonane-3-carboxylic acid]",≤ 100 nM
13,"O=C(C[C@H]1CC[C@H](C(=O)O)CC1)N1CCc2c(C(F)F)nn(Cc3ccc(F)cc3)c2C1 [Example 5-44, trans-4-(2-(3-(Difluoromethyl)-1-(4-fluorobenzyl)-4,5-dihydro-1H-pyrazolo[3,4-c]pyridin-6(7H)-yl)-2-oxoethyl)cyclohexanecarboxylic acid]",≤ 100 nM
14,"O=C(O)[C@H]1CC(CC(=O)N2CCc3c(C(F)(F)F)nn(Cc4ccc(Cl)cc4F)c3C2)CN1 (stereo partly drawn) [Example 9-14, (2R)-4-(2-(1-(4-Chloro-2-fluorobenzyl)-3-(trifluoromethyl)-4,5-dihydro-1H-pyrazolo[3,4-c]pyridin-6(7H)-yl)-2-oxoethyl)pyrrolidine-2-carboxylic acid TFA salt]",≤ 100 nM
15,"O=C(N[C@H]1CC[C@H](C(=O)O)CC1)N1CCc2c(C(F)(F)F)nn(Cc3ccc(Cl)cc3F)c2C1 [Example 5-7, trans-4-(1-(4-Chloro-2-fluorobenzyl)-3-(trifluoromethyl)-4,5,6,7-tetrahydro-1H-pyrazolo[3,4-c]pyridine-6-carboxamido)cyclohexanecarboxylic acid]",≤ 100 nM
16,"O=C(CN[C@H]1CC[C@H](C(=O)O)CC1)N1CCc2c(C(F)(F)F)nn(Cc3ccc(F)cc3)c2C1 [Example 13-31, trans-4-(2-(1-(4-Fluorobenzyl)-3-(trifluoromethyl)-4,5-dihydro-1H-pyrazolo[3,4-c]pyridin-6(7H)-yl)-2-oxoethylamino)cyclohexanecarboxylic acid TFA salt]",≤ 100 nM
17,"O=C(O)C1CC2CCC(C1)C2CC(=O)N1CCc2c(C(F)(F)F)nn(Cc3ccc(Cl)cc3F)c2C1 (mixture of isomers) [Example 6-10, 8-(2-(1-(4-Chloro-2-fluorobenzyl)-3-(trifluoromethyl)-4,5-dihydro-1H-pyrazolo[3,4-c]pyridin-6(7H)-yl)-2-oxoethyl)bicyclo[3.2.1]octane-3-carboxylic acid]",≤ 100 nM
18,"O=C(O)CCCC(=O)N1CCc2c(C(F)(F)F)nn(Cc3ccc(Cl)cc3F)c2C1 [Example 14-2, 5-(1-(4-Chloro-2-fluorobenzyl)-3-(trifluoromethyl)-4,5-dihydro-1H-pyrazolo[3,4-c]pyridin-6(7H)-yl)-5-oxopentanoic acid]",≤ 100 nM
19,"O=C(O)C1CCC(CC(=O)N2CCc3c(C(F)(F)F)nn(CC4CCCCC4)c3C2)CC1 (single isomer, unassigned) [Example 7-13, 4-(2-(1-(cyclohexylmethyl)-3-(trifluoromethyl)-4,5-dihydro-1H-pyrazolo[3,4-c]pyridin-6(7H)-yl)-2-oxoethyl)cyclohexanecarboxylic acid]",≤ 100 nM
20,"CCOc1nn(Cc2ccc(F)cc2)c2c1CCN(C(=O)C[C@H]1CC[C@H](C(=O)O)CC1)C2 [Example 5-42, trans-4-(2-(3-Ethoxy-1-(4-fluorobenzyl)-4,5-dihydro-1H-pyrazolo[3,4-c]pyridin-6(7H)-yl)-2-oxoethyl)cyclohexanecarboxylic acid]",≤ 100 nM
21,"N#C[C@H]1CC[C@@H](CC(=O)N2CCc3c(C(F)(F)F)nn(Cc4ccc(F)cc4)c3C2)CC1 [Example 21-1, cis-4-(2-(1-(4-Fluorobenzyl)-3-(trifluoromethyl)-4,5-dihydro-1H-pyrazolo[3,4-c]pyridin-6(7H)-yl)-2-oxoethyl)cyclohexanecarbonitrile]",≤ 100 nM
22,"O=C(O)C1CCN(CC(=O)N2CCc3c(C(F)(F)F)nn(Cc4ccc(F)cc4)c3C2)C1 (stereo not shown) [Example 13-12, 1-(2-(1-(4-Fluorobenzyl)-3-(trifluoromethyl)-4,5-dihydro-1H-pyrazolo[3,4-c]pyridin-6(7H)-yl)-2-oxoethyl)pyrrolidine-3-carboxylic acid]",≤ 100 nM
23,"O=C(O)C1CCCN(CC(=O)N2CCc3c(C(F)(F)F)nn(Cc4ccc(Cl)cc4F)c3C2)C1 (stereo not shown) [Example 13-3, 1-(2-(1-(4-Chloro-2-fluorobenzyl)-3-(trifluoromethyl)-4,5-dihydro-1H-pyrazolo[3,4-c]pyridin-6(7H)-yl)-2-oxoethyl)piperidine-3-carboxylic acid]",≤ 100 nM
24,"O=C(O)C12CCC(C(=O)N3CCc4c(C(F)(F)F)nn(Cc5ccc(F)cc5)c4C3)(CC1)CC2 [Example 5-11, 4-(1-(4-Fluorobenzyl)-3-(trifluoromethyl)-4,5,6,7-tetrahydro-1H-pyrazolo[3,4-c]pyridine-6-carbonyl)bicyclo[2.2.2]octane-1-carboxylic acid]",≤ 100 nM
25,"O=C(O[C@H]1CC[C@H](C(=O)O)CC1)N1CCc2c(C(F)(F)F)nn(Cc3ccc(Cl)cc3F)c2C1 [Example 7-10, trans-4-((1-(4-chloro-2-fluorobenzyl)-3-(trifluoromethyl)-4,5,6,7-tetrahydro-1H-pyrazolo[3,4-c]pyridine-6-carbonyl)oxy)cyclohexanecarboxylic acid]",≤ 100 nM
26,"Cc1ccc(Cn2nc(C(F)(F)F)c3c2CN(C(=O)C[C@H]2CC[C@H](C(=O)O)CC2)CC3)cc1 [Example 5-14, trans-4-(2-(1-(4-Methylbenzyl)-3-(trifluoromethyl)-4,5-dihydro-1H-pyrazolo[3,4-c]pyridin-6(7H)-yl)-2-oxoethyl)cyclohexanecarboxylic acid]",≤ 100 nM
27,"O=C(O)C1CC(CC(=O)N2CCc3c(C(F)(F)F)nn(Cc4ccc(F)cc4)c3C2)C1 (mixture of isomers) [Example 6-9, 3-(2-(1-(4-Fluorobenzyl)-3-(trifluoromethyl)-4,5-dihydro-1H-pyrazolo[3,4-c]pyridin-6(7H)-yl)-2-oxoethyl)cyclobutanecarboxylic acid]",≤ 100 nM
28,"O=C(C[C@H]1CC[C@H](C(=O)O)CC1)N1CCc2c(C(F)(F)F)nn(Cc3ccc(F)c(F)c3)c2C1 [Example 5-31, trans-4-(2-(1-(3,4-Difluorobenzyl)-3-(trifluoromethyl)-4,5-dihydro-1H-pyrazolo[3,4-c]pyridin-6(7H)-yl)-2-oxoethyl)cyclohexanecarboxylic acid]",≤ 100 nM
